In US20160361298A1, “METHODS AND COMPOSITIONS FOR TREATING CANCER” (Globavir BioSciences, Inc., priority 2015, published 2016) one finds activity and IC50 data, which are given here for one compound.

The chains behind the UniProt entries cited, without tags or fusion partners. Where a name states a change or a piece, a line headed by the entry shows the natural chain unless it says otherwise.
UniProt P48775: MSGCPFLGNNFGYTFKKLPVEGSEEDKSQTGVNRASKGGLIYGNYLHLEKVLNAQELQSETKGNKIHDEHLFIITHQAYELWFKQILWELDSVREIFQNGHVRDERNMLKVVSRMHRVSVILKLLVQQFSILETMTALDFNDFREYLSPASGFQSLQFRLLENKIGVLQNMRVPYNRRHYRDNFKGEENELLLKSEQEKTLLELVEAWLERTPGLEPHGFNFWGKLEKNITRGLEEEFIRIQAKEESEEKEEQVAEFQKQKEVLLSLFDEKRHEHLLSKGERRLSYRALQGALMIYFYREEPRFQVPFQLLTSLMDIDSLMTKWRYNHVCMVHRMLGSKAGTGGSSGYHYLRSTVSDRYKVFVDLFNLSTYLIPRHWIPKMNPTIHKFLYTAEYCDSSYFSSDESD
UniProt P14902, whole entry: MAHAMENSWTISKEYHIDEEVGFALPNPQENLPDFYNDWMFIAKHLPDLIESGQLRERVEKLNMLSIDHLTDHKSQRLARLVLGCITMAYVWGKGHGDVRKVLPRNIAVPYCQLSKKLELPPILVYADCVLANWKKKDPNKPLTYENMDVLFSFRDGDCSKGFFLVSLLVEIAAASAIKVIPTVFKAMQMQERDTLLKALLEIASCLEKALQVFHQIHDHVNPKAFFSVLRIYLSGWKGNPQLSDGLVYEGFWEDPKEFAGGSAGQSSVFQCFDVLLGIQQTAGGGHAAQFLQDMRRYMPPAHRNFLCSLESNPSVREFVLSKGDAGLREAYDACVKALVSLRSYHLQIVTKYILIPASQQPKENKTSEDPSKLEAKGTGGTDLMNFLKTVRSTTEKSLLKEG

In assay [1] the target is T1, Recombinant TDO (Homo sapiens, UniProt P48775).
T1 construct: Recombinant TDO or IDO was diluted to 16 ng/uL and 50 uL loaded into wells of a 96-well plate
In words: TDO Inhibition Assay (recombinant enzyme, absorbance at 321 nm). It is filed as biochemical. The protocol: Inhibition of IDO by TDO/IDO test inhibitors was assessed in vitro. A substrate mixture was prepared by mixing equal volumes of 80 mM ascorbic acid diluted in 0.405 M Tris, pH 8.0 and a mixture of […] L-tryptophan, 9,000 units/mL catalase and 40 uM methyene blue. Recombinant TDO or IDO was diluted to 16 ng/uL and 50 uL loaded into wells of a 96-well plate. The reaction was started by the addition of 50 uL substrate mixture. The plate was read in kinetic mode at 321 nm for 5 minutes. The rate of increase of absorbance measured in the absence of a TDO/IDO inhibitor is taken as the maximum rate of enzymatic activity.

Assay [2] has as its target T2, Recombinant IDO (Homo sapiens, UniProt P14902).
T2 construct: Recombinant TDO or IDO was diluted to 16 ng/uL and 50 uL loaded into wells of a 96-well plate
In words: IDO Inhibition Assay (recombinant enzyme, absorbance at 321 nm). The format is biochemical. The protocol: Inhibition of IDO by TDO/IDO test inhibitors was assessed in vitro. […] Recombinant TDO or IDO was diluted to 16 ng/uL and 50 uL loaded into wells of a 96-well plate. The reaction was started by the addition of 50 uL substrate mixture. […] The rate of increase of absorbance measured in the absence of a TDO/IDO inhibitor is taken as the maximum rate of enzymatic activity.

Assay [3] relates to HuT78 (human CTCL cell line). In words: Cancer cell cytotoxicity, CellTiter-Glo Luminescent Cell Viability Assay. The conditions noted are these: HuT78, read-out: IC50 (μM) cancer cell cytotoxicity. (In general: ATP-based viability assays read luminescence as a measure of living cells.)
Assay [4] concerns U87MG (human glioblastoma). The description is as above. The conditions noted are these: U-87 MG, read-out: IC50 (μM) cancer cell cytotoxicity.
Assay [5] has as its system SCC4 (human squamous cell carcinoma). Described as above. The conditions noted are these: SCC-4, read-out: IC50 (μM) cancer cell cytotoxicity.
Assay [6] deals with HT29 (human colorectal adenocarcinoma). Described as above. Conditions: HT-29, read-out: IC50 (μM) cancer cell cytotoxicity.
The test system of assay [7] is Pano2 (murine pancreatic). The assay is described as above. The conditions noted are these: Mus musculus, PanO2, read-out: IC50 (μM) cancer cell cytotoxicity.
Assay [8] relates to GL261 (murine glioma). The assay is described as above. Conditions: Mus musculus, GL261, read-out: IC50 (μM) cancer cell cytotoxicity.

SMILES strings stand for the structures.

Usually IC50 stands for the point on the concentration scale where inhibition reaches its midpoint. As to `Clc1ccc(CSC(Cn2ccnc2)c2ccc(Cl)cc2Cl)cc1` (stereo not drawn) [Sulconazole], the activity at 1 µM is 72% in assay [1] (1 μM test compound, remaining enzyme activity, read-out: TDO Inhibition Assay Screening (Activity, %) 1 μM) and 36% in assay [2] (1 μM test compound, remaining enzyme activity, read-out: IDO Inhibition Assay Screening (Activity, %) 1 μM). For the same compound, the activity at 10 µM turned out to be 17% in assay [1] (10 μM test compound, remaining enzyme activity, read-out: TDO Inhibition Assay Screening (Activity, %) 10 μM) and 11% in assay [2] (10 μM test compound, remaining enzyme activity, read-out: IDO Inhibition Assay Screening (Activity, %) 10 μM). Moreover, the IC50 in assay [1] (read-out: TDO Inhibition Assay Dose Resp. (IC50)) stood at 3.51 µM; in assay [2] (read-out: IDO Inhibition Assay Dose Resp. (IC50)), 0.74 µM; in assay [3] it was 9.37 µM; in assay [4], 13.6 µM; in assay [5] it was 109 µM; in assay [6], 8.74 µM. Further, the half-inhibitory concentration (IC50) in assay [7] was found to be 9.35 µM; in assay [8] it was 61.8 µM.
